We go through two molecules from article doi:10.64898/2025.12.11.693622 (bioRxiv, 2025).

Test [1] has as its target full-length wild-type CCDC127 (BN-PAGE of HEK293T mitochondria) (human) (UniProt Q96BQ5). As to the kind of experiment: native gel or EMSA.
The target of test [2] is full-length CCDC127 K73A (human) (UniProt Q96BQ5). Kind of test: native gel or EMSA. (In general: Mobility shift assays separate free from complexed probe on a gel.)

These are yes or no findings as the source states them, for the method shown. Some results given as binding are weak or reduced against the parent protein; the word gives no strength.

B1: CCDC127 WT-HA (full-length CCDC127 with HA tag) (natural protein, human, UniProt Q96BQ5 1-260, looked up)
chain: MNNLNDPPNWNIRPNSRADGGDGSRWNYALLVPMLGLAAFRWIWSRESQKEVEKEREAYRRRTAAFQQDLEAKYHAMISENRRAVAQLSLELEKEQNRTASYREALISQGRKLVEEKKLLEQERAQVMQEKRQVQPLRSAYLSCLQREENWQRRARLLLKEFEAVLTERQNIYCSLFLPRSKRLEIEKSLLVRASVDPVAADLEMAAGLTDIFQHDTYCGDVWNTNKRQNGRLMWLYLKYWELVVELKKFKRVEEAILEK
Regarding B1, the binding result in test [1] is “binds”.

B2: full-length CCDC127 K73A (protein, UniProt Q96BQ5 1-260)
chain: MNNLNDPPNWNIRPNSRADGGDGSRWNYALLVPMLGLAAFRWIWSRESQKEVEKEREAYRRRTAAFQQDLEAAYHAMISENRRAVAQLSLELEKEQNRTASYREALISQGRKLVEEKKLLEQERAQVMQEKRQVQPLRSAYLSCLQREENWQRRARLLLKEFEAVLTERQNIYCSLFLPRSKRLEIEKSLLVRASVDPVAADLEMAAGLTDIFQHDTYCGDVWNTNKRQNGRLMWLYLKYWELVVELKKFKRVEEAILEK
On to B2, for which the binding entry in test [2] is listed as “binds”.
